{
  "source": "patent US5008419A",
  "about": "“Novel platinum complex” (SS Pharmaceutical Co., Ltd., priority 1988, dated 1991)",
  "data": [
    {"tested_on": "L1210 leukemia cells", "experiment": "Antitumor activity against L1210 leukemia in CDF1 mice (increase life span, survived ratio)", "type": "in vivo, CDF1 male mice", "settings": "from LD50 and ILS50", "procedure": "CDF1 male mice (age: 6 weeks) consisting of 6 per each group were used to the test. 1×10^5 L1210 leukemia cells were intraperitoneally inoculated into each mouse. Test compounds dissolved in a solution of 0.5% CMC-Na in physiological saline were intraperitoneally administered to mice once a day for 5 consecutive days from the next day of the inoculation. A 0.5% CMC-Na solution in physiological saline was administered to the control group. […] All of these compounds are known compounds and Comparative Compounds a-c were disclosed in U.S. Pat. No. 4,169,846.\nObservation was continued for consecutive 30 days after the administration. Increase life span (ILS) was determined according to the following equation: […]\nwherein T is the mean survival days of the treated groups, and C is the mean survival days of the control groups.\nTherapeutic index of compounds of this invention was determined according to the following equation. [formula]", "values": [
      {"molecule": "N.N.O=C([O-])C1(C(=O)[O-])CCC1.[Pt+2]", "note": "[Carboplatin]", "Therapeutic index": 6.4},
      {"molecule": "(trans-dl-1,2-diaminocyclohexane) diethylmalonatoplatinum (II) [Compound No. 2]", "Therapeutic index": 51.9},
      {"molecule": "(trans-dl-1,2-diaminocyclohexane) dimethylmalonatoplatinum (II) [Compound No. 1]", "Therapeutic index": 41.2},
      {"molecule": "(trans-dl-1,2-diaminocyclohexane)-malonatoplatinum (II) [Comparative Compound a]", "Therapeutic index": 34.5}
    ]}
  ]
}
